Source: PMC5869502
These are yes or no findings as the source states them, for the method shown. Binding seen in cells or lysates may run through a third protein.

Experiments:
Assay in all cases: FRET or BRET
[1] = target: RSV M (183–256) (respiratory syncytial virus (RSV)) (UniProt P0DOE7)
[2] = target: T1, Respiratory syncytial virus (RSV) matrix (M) protein, full-length M (1–256) (respiratory syncytial virus (RSV)) (UniProt P0DOE7)
T1 sequence: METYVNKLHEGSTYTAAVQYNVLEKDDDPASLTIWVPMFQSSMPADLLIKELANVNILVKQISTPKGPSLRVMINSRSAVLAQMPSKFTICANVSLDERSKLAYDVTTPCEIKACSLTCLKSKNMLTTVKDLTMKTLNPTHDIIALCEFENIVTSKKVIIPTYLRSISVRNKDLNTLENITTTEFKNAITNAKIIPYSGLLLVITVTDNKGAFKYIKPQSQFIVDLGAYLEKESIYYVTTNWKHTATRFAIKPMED

[3] = target: RSV M (1–200) (respiratory syncytial virus (RSV)) (UniProt P0DOE7)
[4] = target: RSV M (110–183) (respiratory syncytial virus (RSV)) (UniProt P0DOE7)

| Substance | binding [1] | binding [2] | binding [3] | binding [4] |
| --- | --- | --- | --- | --- |
| RSV M (183–256) (from UniProt P0DOE7 183-256) (domain or fragment) | no binding | no binding | – | – |
| RSV M (1–200) (from UniProt P0DOE7 1-200) (domain or fragment) | – | no binding | no binding | – |
| RSV M (110–183) (from UniProt P0DOE7 110-183) (domain or fragment) | – | no binding | – | no binding |
